From patent US8247383B2, “Drug-carrier complexes and methods of use thereof” (The General Hospital Corporation, priority 1999, dated 2012)
Some entries share one result that the patent states for a list of compounds.

Assay: Lyophilization and reconstitution in PBS with membrane filtration
Assay type: physicochemical
Settings: filtered through 0.22 mm PTFE membrane; by adsorption at 470 nm
Procedure: The adducts obtained as described in Examples 2 and 3 were used in a lyophilized form. Doxorubicin powder (Sigma Chemical Co., St. Louis, Mo.) and lyophilized “Doxorubicin for injection” were used as control preparations. Each of the four preparations, in the amount of one milligram by doxorubicin, were suspended in 0.1 ml of a 50 mM PBS, pH=7. […] The resultant solutions oligonucleotide-doxorubicin adduct solutions were filtered through […] PTFE membrane filters; doxorubicin was recovered in the filtrates with at least 98% yield (by adsorption at 470 nm).

SMILES: COc1cccc2c1C(=O)c1c(O)c3c(c(O)c1C2=O)C[C@@](O)(C(=O)CO)C[C@@H]3O[C@H]1C[C@H](N)[C@H](O)[C@H](C)O1 [doxorubicin, Doxorubicin]
- doxorubicin recovered in the filtrate: less than 5%
